Consider 1 substance from paper PMC4594993.

For the experiment, the target named is T1, Flotillin-1-eGFP (human) (UniProt O75955).
T1 sequence: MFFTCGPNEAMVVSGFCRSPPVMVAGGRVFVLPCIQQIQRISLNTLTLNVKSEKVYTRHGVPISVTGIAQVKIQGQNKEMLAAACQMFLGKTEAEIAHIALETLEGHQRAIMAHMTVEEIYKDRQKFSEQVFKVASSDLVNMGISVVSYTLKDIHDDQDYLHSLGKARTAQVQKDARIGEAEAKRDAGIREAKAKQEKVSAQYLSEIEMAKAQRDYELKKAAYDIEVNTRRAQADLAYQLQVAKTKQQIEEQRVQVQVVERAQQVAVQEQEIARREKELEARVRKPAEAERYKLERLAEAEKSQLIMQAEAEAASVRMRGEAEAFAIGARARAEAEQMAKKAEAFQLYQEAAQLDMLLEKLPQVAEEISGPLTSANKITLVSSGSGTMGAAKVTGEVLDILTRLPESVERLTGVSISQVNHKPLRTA
The experiment in a line: FRET or BRET; FRET imaging in SMMC-7721 cells co-transfected with acceptor (CD147-dsRed1) and donor (Flotillin-1-eGFP); CoA and CoB from single-transfected donor and acceptor samples.

These are yes or no findings as the source states them, for the method shown. Binding seen in cells or lysates may run through a third protein. A result given as binding can be weak or reduced; the word gives no strength. Where a sequence is shown, tags or fusion partners need not be part of it.

As to CD147-dsRed1 (pdsRed1-N1-CD147), the binding entry was “binds”.
